{"sequences": {"note": "Amino acid sequences for entries named in this document (tags omitted).", "UniProt Q99MK2": "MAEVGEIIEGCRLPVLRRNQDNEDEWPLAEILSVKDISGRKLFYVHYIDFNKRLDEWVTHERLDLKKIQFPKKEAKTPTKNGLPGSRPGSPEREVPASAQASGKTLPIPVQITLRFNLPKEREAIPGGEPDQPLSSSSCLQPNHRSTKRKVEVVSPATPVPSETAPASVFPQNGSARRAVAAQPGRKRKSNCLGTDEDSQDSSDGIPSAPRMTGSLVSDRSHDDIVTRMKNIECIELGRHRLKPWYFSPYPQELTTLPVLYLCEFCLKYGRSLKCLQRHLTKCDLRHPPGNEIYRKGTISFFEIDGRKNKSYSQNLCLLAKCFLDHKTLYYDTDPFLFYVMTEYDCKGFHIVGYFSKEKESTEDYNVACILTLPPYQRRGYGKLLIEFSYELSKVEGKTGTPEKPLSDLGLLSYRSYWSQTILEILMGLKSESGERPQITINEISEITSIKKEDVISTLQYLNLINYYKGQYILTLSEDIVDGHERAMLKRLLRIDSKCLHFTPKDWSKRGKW"}, "source": "paper PMC11880080", "target": "T1, stargazin (Stg), auxiliary subunit of AMPAR-type glutamate receptors (rat (endogenous in primary hippocampal neurons)) (UniProt Q71RJ2)", "T1 sequence": "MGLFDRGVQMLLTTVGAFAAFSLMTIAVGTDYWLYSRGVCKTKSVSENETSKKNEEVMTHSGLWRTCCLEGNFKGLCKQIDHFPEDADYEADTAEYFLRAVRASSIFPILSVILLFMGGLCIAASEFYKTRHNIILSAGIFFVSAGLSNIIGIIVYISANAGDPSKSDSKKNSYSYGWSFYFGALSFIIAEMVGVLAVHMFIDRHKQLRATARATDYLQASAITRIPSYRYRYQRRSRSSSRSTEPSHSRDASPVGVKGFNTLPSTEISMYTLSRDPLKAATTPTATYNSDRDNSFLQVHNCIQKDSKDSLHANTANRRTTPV", "assay": "proximity ligation; conventional antibody-based Duolink PLA (no nanobodies) on fixed primary rat hippocampal neurons; positive and negative control pairs", "note": "These are yes or no findings as the source states them, for the method shown. Binding seen in cells or lysates may run through a third protein."}
{"substance": "Tat-interactive protein 60 (TIP60), nuclear histone acetylase (from UniProt Q99MK2 1-513)", "values": [{"measurement": "binding", "result": "no binding"}]}
